# In patent US9295629B2 (CAREGEN CO., LTD., priority 2011, dated 2016):
# Where no end group is shown, it is not given here.
# Experiment: general procedure: peptide synthesis; CTL resin
# Conditions: whole synthesis
sequence,measurement,setting,value
LCCGRGHRTRTQR (cysteine pairing not given here),crude mass,,0.65 g
same,crude yield,scale of the general procedure 700 mg resin,92.6%
